Earlier results, collected in patent publication US6506607B1, “Methods and compositions for the identification and assessment of prostate cancer therapies and the diagnosis of prostate cancer” (Millennium Pharmaceuticals, Inc., priority 1997, dated 2003).
For at least one compound, name, drawing or mass did not settle the structure.

System: prostate cancer
Conditions: most eventually relapse; cited from earlier work

For `CC(O)(CS(=O)(=O)c1ccc(F)cc1)C(=O)Nc1ccc(C#N)c(C(F)(F)F)c1` (stereo not shown) [bicalutamide, Bicalutamide], the “prostate cancer patients that respond to the treatment” value is listed as “Approximately 80%”.
